Drawing on PMC5070770, this text covers binding for 1 substance.

Protein sequences, listed by entry. Tags and fused reporters are not part of them.
UniProt Q04725: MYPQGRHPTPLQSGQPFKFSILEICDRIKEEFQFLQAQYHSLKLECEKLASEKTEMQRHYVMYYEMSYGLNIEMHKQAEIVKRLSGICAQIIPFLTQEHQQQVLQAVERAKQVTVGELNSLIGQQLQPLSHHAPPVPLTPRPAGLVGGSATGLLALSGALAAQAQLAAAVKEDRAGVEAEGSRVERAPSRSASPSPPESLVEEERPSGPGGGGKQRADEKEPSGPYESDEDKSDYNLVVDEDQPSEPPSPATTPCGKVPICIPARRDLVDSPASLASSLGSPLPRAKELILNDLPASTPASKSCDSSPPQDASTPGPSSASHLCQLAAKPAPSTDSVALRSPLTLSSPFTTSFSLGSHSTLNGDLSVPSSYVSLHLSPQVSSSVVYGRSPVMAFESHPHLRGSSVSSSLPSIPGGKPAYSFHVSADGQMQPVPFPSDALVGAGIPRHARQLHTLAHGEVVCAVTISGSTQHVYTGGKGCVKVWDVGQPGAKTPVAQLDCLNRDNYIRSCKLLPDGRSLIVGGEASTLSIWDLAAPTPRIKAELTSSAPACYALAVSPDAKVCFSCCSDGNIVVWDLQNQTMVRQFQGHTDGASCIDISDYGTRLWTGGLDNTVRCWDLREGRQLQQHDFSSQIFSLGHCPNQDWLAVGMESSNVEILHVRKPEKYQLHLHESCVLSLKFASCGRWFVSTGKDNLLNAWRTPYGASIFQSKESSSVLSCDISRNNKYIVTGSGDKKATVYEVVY
UniProt Q9UJU2: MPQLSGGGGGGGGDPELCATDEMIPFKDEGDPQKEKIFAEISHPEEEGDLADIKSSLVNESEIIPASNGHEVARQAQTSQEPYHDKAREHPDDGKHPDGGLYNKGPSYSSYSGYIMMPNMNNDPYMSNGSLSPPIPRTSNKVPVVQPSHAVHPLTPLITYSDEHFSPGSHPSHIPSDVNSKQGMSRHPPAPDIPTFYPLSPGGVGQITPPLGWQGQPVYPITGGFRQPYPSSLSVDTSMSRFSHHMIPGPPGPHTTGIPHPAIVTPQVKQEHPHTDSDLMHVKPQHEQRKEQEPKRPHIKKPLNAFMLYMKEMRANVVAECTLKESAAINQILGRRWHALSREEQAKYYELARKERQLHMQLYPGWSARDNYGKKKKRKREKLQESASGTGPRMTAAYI

For this test, the target named is Transducin-like enhancer protein 2 (TLE2), SF-tagged (UniProt Q04725). The test can be described thus: co-IP.

No constants are given. Whether binding was seen depends on the method and setting. Binding seen in cells or lysates may run through a third protein. Some results given as binding are weak or reduced against the parent protein; the word gives no strength.

With “Lymphoid enhancer-binding factor 1 (LEF1), HA-tagged (from UniProt Q9UJU2 1-399)”, the binding result is listed as “binds”.
